PubChem BioAssay AID1259405 – NCATS, 2018

- Aim: 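Mouse-designed siRNAs used to find CHO productivity engineering targets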 (primary screen)
- Cells: Chinese hamster CHO-K1 ovary cells with stable secreted eGFP expression
- Reagents: single siRNA against mouse genes, 0.8 pmol siRNA per well (2 µl of 400 nM stock)
- Time to read-out: 3 days
- Detection: 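Per-well intracellular GFP measured by laser scanning cytometry, plus viability from ATP luminescence, each relative to plate median of non-targeting control wells, in %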
- Direction: GFP, % of control: higher = more GFP per well, higher productivity; viability (ATP), % of control: higher = more viable cells (more ATP)
- Hit rule: 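a knock-down is called active if GFP reaches 120% or more of non-targeting control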
The whole screen tested about 50,000 reagents; below is a random part of them. In the full data, about 4,000 (8%) got an active call. 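Mouse siRNA library applied to hamster cells; one well for each siRNA.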 Unmarked entries are inactive. The numbers tell different reagents against one gene apart.

Pdcl2 (phosducin-like 2) #1: GFP, % of control = 75.7; viability (ATP), % of control = 58.2
Pdcl2 (phosducin-like 2) #2: GFP, % of control = 84.5; viability (ATP), % of control = 79.2
Pdcl2 (phosducin-like 2) #3: GFP, % of control = 85.8; viability (ATP), % of control = 74.3
Ankrd53 (ankyrin repeat domain 53) #1: GFP, % of control = 94.3; viability (ATP), % of control = 65.3
Ankrd53 (ankyrin repeat domain 53) #2: GFP, % of control = 52.3; viability (ATP), % of control = 53.2
Ankrd53 (ankyrin repeat domain 53) #3: GFP, % of control = 76.7; viability (ATP), % of control = 70.7
Arid5b (AT-rich interaction domain 5B) #1: GFP, % of control = 117; viability (ATP), % of control = 101
Arid5b (AT-rich interaction domain 5B) #2: GFP, % of control = 47.3; viability (ATP), % of control = 61.1
Arid5b (AT-rich interaction domain 5B) #3: GFP, % of control = 68.1; viability (ATP), % of control = 81.9
Rinl (Ras and Rab interactor-like) #1: GFP, % of control = 96; viability (ATP), % of control = 96.8
Rinl (Ras and Rab interactor-like) #2: GFP, % of control = 76.2; viability (ATP), % of control = 87.8
Rinl (Ras and Rab interactor-like) #3: GFP, % of control = 82.8; viability (ATP), % of control = 111
Alg9 (ALG9 alpha-1,2-mannosyltransferase) #1: GFP, % of control = 135 (active); viability (ATP), % of control = 90.4
Alg9 (ALG9 alpha-1,2-mannosyltransferase) #2: GFP, % of control = 111; viability (ATP), % of control = 107
Alg9 (ALG9 alpha-1,2-mannosyltransferase) #3: GFP, % of control = 98.3; viability (ATP), % of control = 98
Cldn34b3 (claudin 34B3) #1: GFP, % of control = 48.4; viability (ATP), % of control = 41.6
Cldn34b3 (claudin 34B3) #2: GFP, % of control = 46.3; viability (ATP), % of control = 48.9
Cldn34b3 (claudin 34B3) #3: GFP, % of control = 73.7; viability (ATP), % of control = 68.8

Copied from the entries so far (6 entries):
Ankrd53 (ankyrin repeat domain 53) #2: GFP, % of control = 52.3; viability (ATP), % of control = 53.2
Ankrd53 (ankyrin repeat domain 53) #3: GFP, % of control = 76.7; viability (ATP), % of control = 70.7
Arid5b (AT-rich interaction domain 5B) #1: GFP, % of control = 117; viability (ATP), % of control = 101
Arid5b (AT-rich interaction domain 5B) #2: GFP, % of control = 47.3; viability (ATP), % of control = 61.1
Arid5b (AT-rich interaction domain 5B) #3: GFP, % of control = 68.1; viability (ATP), % of control = 81.9
Rinl (Ras and Rab interactor-like) #1: GFP, % of control = 96; viability (ATP), % of control = 96.8

Next reagents follow.
Isl1 (ISL1 transcription factor, LIM/homeodomain) #1: GFP, % of control = 70.3; viability (ATP), % of control = 90.2
Isl1 (ISL1 transcription factor, LIM/homeodomain) #2: GFP, % of control = 170 (active); viability (ATP), % of control = 133
Isl1 (ISL1 transcription factor, LIM/homeodomain) #3: GFP, % of control = 60; viability (ATP), % of control = 88
Bltp1 (bridge-like lipid transfer protein family member 1) #1: GFP, % of control = 113; viability (ATP), % of control = 114
Bltp1 (bridge-like lipid transfer protein family member 1) #2: GFP, % of control = 117; viability (ATP), % of control = 53.9
Bltp1 (bridge-like lipid transfer protein family member 1) #3: GFP, % of control = 82.5; viability (ATP), % of control = 84
Bex4 (brain expressed X-linked 4) #1: GFP, % of control = 107; viability (ATP), % of control = 74.8
Bex4 (brain expressed X-linked 4) #2: GFP, % of control = 112; viability (ATP), % of control = 72.5
Bex4 (brain expressed X-linked 4) #3: GFP, % of control = 63.2; viability (ATP), % of control = 88.2
Fchsd1 (FCH and double SH3 domains 1) #1: GFP, % of control = 42; viability (ATP), % of control = 76.5
Fchsd1 (FCH and double SH3 domains 1) #2: GFP, % of control = 110; viability (ATP), % of control = 82.3
Fchsd1 (FCH and double SH3 domains 1) #3: GFP, % of control = 62.6; viability (ATP), % of control = 70.7
Uchl1 (ubiquitin carboxy-terminal hydrolase L1) #1: GFP, % of control = 82.5; viability (ATP), % of control = 69.6
Uchl1 (ubiquitin carboxy-terminal hydrolase L1) #2: GFP, % of control = 87.3; viability (ATP), % of control = 84.7
Uchl1 (ubiquitin carboxy-terminal hydrolase L1) #3: GFP, % of control = 66.6; viability (ATP), % of control = 81.6
Or5ac22 (olfactory receptor family 5 subfamily AC member 22) #1: GFP, % of control = 52.1; viability (ATP), % of control = 55.2
Or5ac22 (olfactory receptor family 5 subfamily AC member 22) #2: GFP, % of control = 109; viability (ATP), % of control = 95.5
Or5ac22 (olfactory receptor family 5 subfamily AC member 22) #3: GFP, % of control = 23.4; viability (ATP), % of control = 63.7
BC051019 (cDNA sequence BC051019) #1: GFP, % of control = 51.9; viability (ATP), % of control = 77.2
BC051019 (cDNA sequence BC051019) #2: GFP, % of control = 59.2; viability (ATP), % of control = 63.9
BC051019 (cDNA sequence BC051019) #3: GFP, % of control = 87.7; viability (ATP), % of control = 86.7
Arcn1 (archain 1) #1: GFP, % of control = 13.5; viability (ATP), % of control = 10.3
Arcn1 (archain 1) #2: GFP, % of control = 36.5; viability (ATP), % of control = 32.3
Arcn1 (archain 1) #3: GFP, % of control = 59.6; viability (ATP), % of control = 78.7
